From publication PMC10942602
These are yes or no findings as the source states them, for the method shown. Binding seen in cells or lysates may run through a third protein. Some results given as binding are weak or reduced against the parent protein; the word gives no strength.

Protein sequences, listed by entry. Tags and fused reporters are not part of them. Lines headed by an entry give the natural chain unless they say otherwise; changes in a name come on top. Chains listed by the source or under a name are the forms on record and can include a tag or linker. Residues count along the entry.
GFP-C1ql2 (Q8CFR0, residues 22-287): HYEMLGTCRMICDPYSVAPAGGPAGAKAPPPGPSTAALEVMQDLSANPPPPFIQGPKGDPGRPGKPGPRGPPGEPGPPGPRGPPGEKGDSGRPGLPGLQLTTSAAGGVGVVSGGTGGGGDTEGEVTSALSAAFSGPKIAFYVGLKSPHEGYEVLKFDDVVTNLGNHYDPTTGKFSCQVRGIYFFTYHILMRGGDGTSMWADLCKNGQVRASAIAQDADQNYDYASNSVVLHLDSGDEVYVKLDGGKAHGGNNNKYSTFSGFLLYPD
GFP-C1ql2.K262E (Q8CFR0, form named): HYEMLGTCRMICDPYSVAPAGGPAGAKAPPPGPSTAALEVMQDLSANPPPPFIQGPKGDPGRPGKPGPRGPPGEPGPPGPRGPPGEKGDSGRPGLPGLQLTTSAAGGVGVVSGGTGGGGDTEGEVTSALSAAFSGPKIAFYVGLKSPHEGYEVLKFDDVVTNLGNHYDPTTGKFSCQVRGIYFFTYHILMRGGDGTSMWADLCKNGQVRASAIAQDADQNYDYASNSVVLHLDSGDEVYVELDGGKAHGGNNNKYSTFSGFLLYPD
UniProt P39087, residues 32-908: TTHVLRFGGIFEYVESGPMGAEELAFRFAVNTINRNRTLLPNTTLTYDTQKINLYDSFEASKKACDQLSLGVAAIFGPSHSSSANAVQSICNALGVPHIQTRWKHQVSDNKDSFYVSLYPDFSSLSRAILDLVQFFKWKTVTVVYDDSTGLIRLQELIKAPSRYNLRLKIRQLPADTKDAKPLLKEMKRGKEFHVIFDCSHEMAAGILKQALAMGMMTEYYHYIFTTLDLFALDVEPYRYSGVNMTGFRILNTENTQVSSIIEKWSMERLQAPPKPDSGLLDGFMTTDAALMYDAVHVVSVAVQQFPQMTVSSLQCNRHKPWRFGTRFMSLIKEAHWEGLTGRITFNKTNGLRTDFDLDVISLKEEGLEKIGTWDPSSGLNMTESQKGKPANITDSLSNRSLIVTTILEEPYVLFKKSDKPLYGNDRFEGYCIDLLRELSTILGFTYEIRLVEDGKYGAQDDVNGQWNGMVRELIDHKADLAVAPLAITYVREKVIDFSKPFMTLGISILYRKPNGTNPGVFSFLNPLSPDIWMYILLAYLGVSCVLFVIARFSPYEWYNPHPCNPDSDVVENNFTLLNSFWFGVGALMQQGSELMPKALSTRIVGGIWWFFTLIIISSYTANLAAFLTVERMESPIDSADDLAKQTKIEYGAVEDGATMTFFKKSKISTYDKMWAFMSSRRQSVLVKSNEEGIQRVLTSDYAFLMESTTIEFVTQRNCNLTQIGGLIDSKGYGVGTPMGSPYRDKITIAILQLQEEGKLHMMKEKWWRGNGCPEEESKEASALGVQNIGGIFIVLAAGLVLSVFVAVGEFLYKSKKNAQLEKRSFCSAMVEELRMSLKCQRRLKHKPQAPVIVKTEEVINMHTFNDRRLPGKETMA

What was measured:
GFP-C1ql2 (mouse) = GFP-C1ql2 (mouse) (UniProt Q8CFR0); assay: co-IP; protein extract of HEK293 cells co-expressing GluK2-myc-flag and GFP-C1ql2 or GFP-C1ql2.K262E; Protein A magnetic beads with rabbit anti-C1ql2 (or anti-flag, or IgG control), overnight at 4 °C; lysis buffer 25 mM Tris pH 7.4, 150 mM NaCl, 2 mM MgCl2, 1% Igepal, 5% glycerol; blot with anti-flag M2
GFP-C1ql2.K262E (mouse) = GFP-C1ql2.K262E (mouse) (UniProt Q8CFR0); assay: as above

In the case of “GluK2-myc-flag (from UniProt P39087 32-908) (receptor)”, the binding (GFP-C1ql2 (mouse)) is reported as “binds” and the binding (GFP-C1ql2.K262E (mouse)) is reported as “binds”.
